# Source: PubChem BioAssay AID445 (National Center for Advancing Translational Sciences (NCATS), 2006)
# Some of the results follow. Further columns of the screen follow, without active or inactive calls. Most of these compounds were active or inconclusive in the main read-out, so they are no random draw. Words in brackets tell the shape of the fitted curve; partial curves, single points and poor fits give uncertain potencies.
# Assay: IkB Signaling
# Settings: ABC-DLBCL IkBa-CBG/CBR dual luciferase ratio (green luciferase fused to IkBa over red control in OCI-Ly3 lymphoma cells), 4 h
# In short: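 Luminescence ratio of IκBα-fused green versus native red beetle luciferase in OCI-Ly3 cells, 4 h post-doxycycline with compound; red signal alone, scaled from basal (0%) to zero light (-100%), flagged nonspecific or cytotoxic effects.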
# [1] = measured here: control luc red channel unless noted
smiles,measurement,setting,value
Cc1c(Cl)cccc1NC(=O)CCS(=O)(=O)c1ccc2c(c1)CC(C)N2C(=O)C1CC1 (stereo not drawn),AC50,[1],"10 µM [falling, partial curve]"
CCC(C)S(=O)(=O)c1oc(-c2cccs2)nc1S(=O)(=O)c1ccccc1 (stereo not drawn),AC50,[1],"5.01 µM [falling, partial curve]"
COc1cccc(-c2nnc(SCC(=O)N(C)C3CCCCC3)o2)c1,AC50,[1],"20 µM [falling, partial curve, poor fit]"
CCOc1ccccc1CNCc1c(C(=O)O)c(C)n(Cc2ccc(C)cc2)c1C,AC50,[1],"25.1 µM [falling, single point]"
CN1CCc2nc3sc(C(=O)c4ccc(F)cc4)c(N)c3cc2C1,AC50,[1],"15.8 µM [falling, partial curve]"
CN1C(=O)c2cccc3c(S(=O)(=O)Nc4cccc(C(=O)O)c4)ccc1c23,AC50,[1],"1.58 µM [falling, full curve, poor fit]"
CCc1ccc(NC(=O)c2cc(S(=O)(=O)NC3CCCCCC3)ccc2F)cc1,AC50,[1],"20 µM [falling, partial curve]"
Cc1nn(-c2ccccc2)c2c1N(CCCC(=O)NC(C)c1ccccc1)C(=O)CS2 (stereo not drawn),AC50,[1],"6.31 µM [falling, partial curve]"
N#Cc1c(-n2cccc2/C=N/O)sc2c1CCCC2,AC50,[1],"12.6 µM [falling, partial curve]"
CCc1ccc(CNC(=O)CCn2nc(C)c3c(C)n(-c4ccccc4)nc3c2=O)cc1,AC50,[1],"15.8 µM [falling, single point]"
Cc1cccc(N2CCN(C(=O)c3ccc(Cl)c(S(=O)(=O)NCc4ccco4)c3)CC2)c1C,AC50,[1],"25.1 µM [falling, partial curve]"
Cc1ccc(-c2nn(CC(C)(C)C)c3ncnc(N)c23)cc1,AC50,[1],"2.51 µM [falling, full curve]"
O=C(Nc1ccccc1)c1cccc(N2CCCS2(=O)=O)c1,AC50,[1],"200 nM [rising, full curve, poor fit] [measured here: IkB-luc green channel]"
COc1cc(C(=O)OCC(=O)c2c[nH]c3ccccc23)ccc1OCC(=O)N1CCOCC1,AC50,[1],"10 µM [falling, partial curve]"
S=C(Nc1ccccn1)c1ccccn1,AC50,measured here: IkB-luc green channel,"31.6 µM [rising, partial curve]"
same,AC50,measured here: control luc red channel,"20 µM [falling, partial curve]"
Oc1ccc(N2CCN(c3ncnc4sc5c(c34)CCC5)CC2)cc1,AC50,[1],"12.6 µM [falling, partial curve]"
COc1ccc2c(c1)c(N1CCCC1=O)c(C(=O)Nc1ccc(OC)c(Cl)c1)n2C,AC50,[1],"31.6 µM [falling, single point]"
COc1ccc(Nc2ncc(C(=O)Nc3cccc(Cl)c3)c3ccccc23)cc1,AC50,[1],"5.01 µM [falling, full curve]"
Cc1cc(N2C3CCC2CC(O)(c2ccc(F)cc2)C3)nc(-c2ccccc2)n1 (stereo not drawn),AC50,[1],"15.8 µM [falling, partial curve]"
COc1ccc(Br)cc1CNC(=O)CCc1nc(-c2ccccc2F)no1,AC50,[1],"31.6 µM [falling, partial curve, poor fit]"
CC(C)CCNC(=O)c1cnc2sc(N3CCCCCC3)nn2c1=O,AC50,[1],"0.1 µM [rising, full curve]"
O=C(O)c1ccc2c3c(cccc13)C(=O)N(c1ccccc1O)C2=O,AC50,[1],"0.501 µM [falling, full curve]"
Cc1ccc(O)c(NC(=O)c2cc(-c3ccc(F)cc3)no2)c1,AC50,[1],"15.8 µM [falling, single point]"
COc1ccc(CNC(=O)c2ccc(Cn3c(=O)c4cccn4c4cccnc43)cc2)c(OC)c1,AC50,[1],"39.8 µM [falling, single point]"
COC(=O)CSc1cc(SCC(=O)OC)c(C#N)c(SCC(=O)OC)c1,AC50,[1],"31.6 µM [falling, single point]"
COc1ccc(-n2nc3c(N4CCC(C(=O)N5CCC(C)CC5)CC4)nnc(C)c3c2C)cc1,AC50,[1],"15.8 µM [falling, single point]"
CCOC(=O)c1snc(C(=O)NC2CCCCC2)c1N,AC50,[1],"20 µM [falling, partial curve]"
CCCC(=O)Nc1ccc(NC(=O)c2ccccc2Cl)nc1,AC50,[1],"15.8 µM [falling, partial curve]"
COc1cccc(-c2nc(CS(=O)(=O)CC(=O)N3CCN(c4ccccc4)CC3)c(C)o2)c1,AC50,[1],"39.8 µM [falling, single point]"
Cc1ccc(Cl)cc1N1CCN(C(=O)c2ccc3c(Cl)c4c(nc3c2)CCCC4)CC1,AC50,[1],"20 µM [falling, partial curve]"
COc1ccccc1CNC(=O)CCc1c(C)c2cc3c(C)coc3cc2oc1=O,AC50,[1],"20 µM [falling, partial curve]"
CCn1ccc2c(OCC(=O)Nc3ccc(OC)cc3OC)cccc2c1=O,AC50,[1],"39.8 µM [falling, single point]"
O=c1ccc(-c2ccccc2)nn1Cc1c(F)cccc1Cl,AC50,[1],"3.16 µM [falling, single point]"
CCn1cc(C(=O)NCCC(C)C)c(=O)c2cc(S(=O)(=O)N(C)C3CCCCC3)ccc21,AC50,[1],"31.6 µM [falling, single point]"
O=C1CC(O)(C(F)(F)F)Oc2c1ccc1ccccc21 (stereo not drawn),AC50,[1],"10 µM [falling, partial curve]"
O=C(Cn1c(-c2cccs2)cc2cc(F)ccc21)NCCc1ccc(Cl)cc1,AC50,[1],"6.31 µM [falling, partial curve]"
O=S(=O)(Nc1ccc(O)c(Sc2nc3ccccc3s2)c1)c1cc(Cl)ccc1Cl,AC50,[1],"31.6 µM [falling, partial curve]"
Cc1c(Cl)cccc1NC(=O)C(=O)NCCc1csc2nc(-c3ccccc3F)nn12,AC50,[1],"15.8 µM [falling, single point]"
COc1ccc(-c2noc(CN(C)S(=O)(=O)c3c(C)cc(C)cc3C)n2)cc1OC,AC50,[1],"39.8 µM [falling, single point]"
Cc1ccc(-c2nc(CCNC(=O)c3ccc(C)c(C)c3)cs2)cc1,AC50,[1],"20 µM [falling, partial curve]"
c1ccc(Nc2nc(-c3cccnc3)cs2)nc1,AC50,[1],"5.01 µM [falling, partial curve]"
CC(C)(C)OC(=O)N1CCC(c2c(C(=O)NCc3ccccc3)cnn2-c2cccc(F)c2)CC1,AC50,[1],"12.6 µM [falling, partial curve]"
COc1ccccc1-c1nc2n(n1)C(c1ccccc1Cl)C(C(=O)Nc1cccnc1)=C(C)N2 (stereo not drawn),AC50,[1],"20 µM [falling, partial curve]"
CCSc1nn(CC(=O)Nc2cccc(CC)c2)c(N)c1S(=O)(=O)c1ccccc1,AC50,[1],"31.6 µM [falling, single point]"
Cc1oc(-c2ccc(Cl)cc2)nc1CN1CCCC(C(=O)NCCc2ccc(Cl)cc2)C1 (stereo not drawn),AC50,[1],"20 µM [falling, partial curve]"
COCCCNC(=O)C1CCN(Cc2cc3ccccc3n2Cc2ccccc2C)CC1,AC50,[1],"12.6 µM [falling, partial curve, poor fit]"
Cc1ccc(S(=O)(=O)c2c(O)cc(C)c(NS(=O)(=O)c3ccc(Br)cc3)c2C)cc1,AC50,[1],"15.8 µM [falling, partial curve]"
O=C(CSc1nc2c([nH]c3ccccc32)c(=O)n1-c1ccc(Cl)cc1)N1CCc2ccccc21,AC50,[1],"1.58 µM [rising, partial curve]"
O=C(Cn1ncn2c(cc3sccc32)c1=O)NCCc1ccccc1,AC50,[1],"6.31 µM [rising, single point]"
CCCn1c(NC(=O)c2ccccc2)nc2ccccc21,AC50,[1],"31.6 µM [rising, partial curve] [measured here: IkB-luc green channel]"
C=CCn1c(=O)c2ccccc2n2c(SCC(=O)NCc3cccs3)nnc12,AC50,[1],"12.6 µM [falling, partial curve]"
COc1cc(/C=C/c2nc(C#N)c(N3CCN(C)CC3)o2)cc(OC)c1OC,AC50,[1],"39.8 µM [falling, single point]"
CN(C(=O)c1ccc2c(c1)N(Cc1cccc(Cl)c1)C(=O)c1ccccc1S2(=O)=O)C1CCCCC1,AC50,[1],"12.6 µM [falling, partial curve, poor fit]"
COCCNC(=O)c1cnc2sc(N3CCCCC3)nn2c1=O,AC50,[1],"39.8 µM [rising, single point]"
CSc1cccc(NC(=O)C2CCN(c3nc4ccccc4[nH]3)CC2)c1,AC50,[1],"25.1 µM [falling, partial curve]"
Cc1ccc(Cn2c(SCc3ccc(C(=O)NC4CCCCC4)cc3)nc3ccncc32)cc1,AC50,[1],"12.6 µM [falling, partial curve]"
CCc1ccc(NC(=O)Cn2c(=O)n(-c3ccc(Cl)c(Cl)c3)c(=O)c3c(C)c(C)sc32)cc1,AC50,[1],"0.2 µM [rising, full curve, poor fit]"
COc1ccc(Cl)c2sc(NC(=O)c3ccc(S(=O)(=O)N4CCOCC4)cc3)nc12,AC50,[1],"0.398 µM [falling, full curve]"
Cc1c(-c2nc(-c3ccccc3)no2)nnn1-c1ccc(F)c(Cl)c1,AC50,[1],"7.94 µM [falling, partial curve]"
O=S(=O)(Nc1ccc(-c2cn3ccsc3n2)cc1)c1ccc2c(c1)OCCO2,AC50,[1],"15.8 µM [falling, partial curve]"
COc1ccc(NC(=O)c2c(NCc3cccs3)sc3c2CCC(C)C3)c(OC)c1 (stereo not drawn),AC50,[1],"31.6 µM [falling, single point]"
O=C(CSc1nnc(-c2ccccc2Cl)o1)N1CCCc2ccccc21,AC50,[1],"31.6 µM [falling, single point]"

# Two entries picked at random from the list so far:
smiles,measurement,setting,value
O=C(Cn1ncn2c(cc3sccc32)c1=O)NCCc1ccccc1,AC50,[1],"6.31 µM [rising, single point]"
Cc1cccc(N2CCN(C(=O)c3ccc(Cl)c(S(=O)(=O)NCc4ccco4)c3)CC2)c1C,AC50,[1],"25.1 µM [falling, partial curve]"

# Part of the list above in another layout:
smiles	measurement	setting	value
COc1cccc(-c2nnc(SCC(=O)N(C)C3CCCCC3)o2)c1	AC50	[1]	20 µM [falling, partial curve, poor fit]
S=C(Nc1ccccn1)c1ccccn1	AC50	measured here: control luc red channel	20 µM [falling, partial curve]
